Reference: paper PMC5477518
No constants are given. Whether binding was seen depends on the method and setting. In cells and extracts the contact can be indirect. Some results given as binding are weak or reduced against the parent protein; the word gives no strength. Tags and fused reporters may be left off the sequences shown.

Chains of the proteins cited; added tags and fusions are not shown. Residues count along the entry.
UniProt P28799, residues 18-593: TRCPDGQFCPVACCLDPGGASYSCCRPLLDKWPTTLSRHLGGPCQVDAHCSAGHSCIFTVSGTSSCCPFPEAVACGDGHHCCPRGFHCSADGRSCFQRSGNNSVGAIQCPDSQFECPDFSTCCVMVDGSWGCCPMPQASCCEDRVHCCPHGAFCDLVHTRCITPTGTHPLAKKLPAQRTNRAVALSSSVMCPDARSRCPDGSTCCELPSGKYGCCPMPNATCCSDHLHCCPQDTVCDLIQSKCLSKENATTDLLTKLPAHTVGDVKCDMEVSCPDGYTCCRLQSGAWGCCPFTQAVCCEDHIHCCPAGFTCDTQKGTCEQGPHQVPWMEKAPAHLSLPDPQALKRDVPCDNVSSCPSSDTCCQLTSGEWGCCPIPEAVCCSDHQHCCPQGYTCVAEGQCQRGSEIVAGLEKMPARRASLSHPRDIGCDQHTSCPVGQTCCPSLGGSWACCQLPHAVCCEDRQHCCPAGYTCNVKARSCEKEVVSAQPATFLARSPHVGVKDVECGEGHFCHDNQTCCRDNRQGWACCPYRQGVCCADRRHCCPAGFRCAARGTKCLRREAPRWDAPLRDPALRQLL

Target: T1, Mouse PSAP-myc-his (mouse) (UniProt Q61207)
T1 sequence: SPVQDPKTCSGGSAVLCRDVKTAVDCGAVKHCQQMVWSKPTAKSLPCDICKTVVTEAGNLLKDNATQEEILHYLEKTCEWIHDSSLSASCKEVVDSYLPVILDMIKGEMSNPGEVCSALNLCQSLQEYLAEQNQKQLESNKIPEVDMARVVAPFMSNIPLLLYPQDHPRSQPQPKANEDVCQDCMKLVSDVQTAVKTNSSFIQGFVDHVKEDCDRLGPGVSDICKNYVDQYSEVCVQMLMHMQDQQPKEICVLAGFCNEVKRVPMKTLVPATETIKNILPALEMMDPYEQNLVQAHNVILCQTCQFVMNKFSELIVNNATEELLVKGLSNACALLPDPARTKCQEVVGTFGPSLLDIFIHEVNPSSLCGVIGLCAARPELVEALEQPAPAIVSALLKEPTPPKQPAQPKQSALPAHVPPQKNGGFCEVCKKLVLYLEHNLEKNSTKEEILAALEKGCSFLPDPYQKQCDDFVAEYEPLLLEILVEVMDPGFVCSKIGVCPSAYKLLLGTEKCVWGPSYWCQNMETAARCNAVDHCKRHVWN
Test: co-IP; HEK293T cells transfected with PSAP, sortilin and PGRN constructs together; lysates subject to anti-myc immunoprecipitation and blotted

- binding: binds
Substance: Human PGRN (pCMV-Sport6 construct) (from UniProt P28799 18-593)
